Laboratory results published in paper PMC5756042, “Molecular Defects of the Disease-Causing Human Arrestin-1 C147F Mutant” (Investigative Ophthalmology & Visual Science, 2018).
No constants are given. Whether binding was seen depends on the method and setting. Some entries that bind do so weakly or less than the wild type.

By UniProt entry, the sequences of proteins in these tests, tags left out.
UniProt P02699: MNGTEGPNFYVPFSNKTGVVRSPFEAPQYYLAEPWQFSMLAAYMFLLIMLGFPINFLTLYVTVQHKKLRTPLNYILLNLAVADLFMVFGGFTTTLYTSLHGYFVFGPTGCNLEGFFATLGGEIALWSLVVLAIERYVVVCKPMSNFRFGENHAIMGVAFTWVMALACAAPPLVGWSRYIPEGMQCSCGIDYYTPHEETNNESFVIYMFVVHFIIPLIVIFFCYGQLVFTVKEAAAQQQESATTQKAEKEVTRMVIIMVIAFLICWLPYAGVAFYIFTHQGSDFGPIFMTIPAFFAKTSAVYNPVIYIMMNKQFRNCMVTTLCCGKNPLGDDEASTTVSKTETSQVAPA
UniProt P10523: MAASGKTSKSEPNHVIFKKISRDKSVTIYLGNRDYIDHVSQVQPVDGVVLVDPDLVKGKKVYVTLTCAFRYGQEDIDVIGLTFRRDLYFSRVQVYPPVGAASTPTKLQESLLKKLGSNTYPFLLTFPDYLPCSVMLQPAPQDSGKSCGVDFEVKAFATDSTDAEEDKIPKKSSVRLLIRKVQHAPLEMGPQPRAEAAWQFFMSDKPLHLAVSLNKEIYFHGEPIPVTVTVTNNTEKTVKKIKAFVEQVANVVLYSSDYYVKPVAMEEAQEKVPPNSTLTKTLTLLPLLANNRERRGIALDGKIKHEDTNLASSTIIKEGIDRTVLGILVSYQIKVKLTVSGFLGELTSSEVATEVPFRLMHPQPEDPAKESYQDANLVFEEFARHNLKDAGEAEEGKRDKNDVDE

How the values were obtained:
[1] = molecular target: light-activated phosphorylated rhodopsin (bovine) (UniProt P02699); test: radioligand binding; direct binding assay to P-Rh* after incubation of the arrestin-1 at 37°C for times up to 8 hours; 1 nM arrestin-1; only the target purified
[2] = molecular target: light-activated phosphorylated rhodopsin (bovine) (UniProt P02699); test: radioligand binding; direct binding assay to P-Rh* after incubation of the arrestin-1 at 37°C for 24 hours; 1 nM arrestin-1; only the target purified
[3] = molecular target: light-activated phosphorylated rhodopsin (bovine) (UniProt P02699); test: radioligand binding; direct binding assay: 1 nM radiolabelled arrestin-1 (50 fmol) with 0.3 μg P-Rh* or Rh* (0.22 μM) in 50 μL of 50 mM Tris-HCl pH 7.4, 100 mM potassium acetate, 1 mM EDTA, 1 mM dithiothreitol, 5 minutes at 37°C under room light; bound and free separated at 4°C on Sepharose 2B-CL; scintillation counting; nonspecific binding subtracted; only the target purified
[4] = molecular target: light-activated phosphorylated rhodopsin (bovine) (UniProt P02699); test: radioligand binding; direct binding assay to P-Rh* (5 minutes at 37°C) after 30 minutes of incubation of the arrestin-1 at temperatures from 0°C up to 42°C; only the target purified
[5] = molecular target: light-activated phosphorylated rhodopsin (bovine) (UniProt P02699); test: radioligand binding; direct binding assay to P-Rh* after incubation of the translated arrestin-1 for 1 or 2 hours at 42°C (control kept on ice); 1 nM arrestin-1; only the target purified

- binding [1]: binds
- binding [2]: binds
- binding [3]: binds
- binding [4]: binds
- binding [5]: binds
Substance: wild-type human arrestin-1 (from UniProt P10523 1-405)
